Experimental data from the supplement of paper PMC10849652.
This is one part of the list.

Amino acid sequences for entries named in this document (tags omitted). A change or cut given only in a name is not applied to a line headed by its entry.
UniProt P31949: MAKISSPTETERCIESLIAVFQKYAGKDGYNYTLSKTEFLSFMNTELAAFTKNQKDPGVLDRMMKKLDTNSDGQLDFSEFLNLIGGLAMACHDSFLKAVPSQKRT
UniProt O94885: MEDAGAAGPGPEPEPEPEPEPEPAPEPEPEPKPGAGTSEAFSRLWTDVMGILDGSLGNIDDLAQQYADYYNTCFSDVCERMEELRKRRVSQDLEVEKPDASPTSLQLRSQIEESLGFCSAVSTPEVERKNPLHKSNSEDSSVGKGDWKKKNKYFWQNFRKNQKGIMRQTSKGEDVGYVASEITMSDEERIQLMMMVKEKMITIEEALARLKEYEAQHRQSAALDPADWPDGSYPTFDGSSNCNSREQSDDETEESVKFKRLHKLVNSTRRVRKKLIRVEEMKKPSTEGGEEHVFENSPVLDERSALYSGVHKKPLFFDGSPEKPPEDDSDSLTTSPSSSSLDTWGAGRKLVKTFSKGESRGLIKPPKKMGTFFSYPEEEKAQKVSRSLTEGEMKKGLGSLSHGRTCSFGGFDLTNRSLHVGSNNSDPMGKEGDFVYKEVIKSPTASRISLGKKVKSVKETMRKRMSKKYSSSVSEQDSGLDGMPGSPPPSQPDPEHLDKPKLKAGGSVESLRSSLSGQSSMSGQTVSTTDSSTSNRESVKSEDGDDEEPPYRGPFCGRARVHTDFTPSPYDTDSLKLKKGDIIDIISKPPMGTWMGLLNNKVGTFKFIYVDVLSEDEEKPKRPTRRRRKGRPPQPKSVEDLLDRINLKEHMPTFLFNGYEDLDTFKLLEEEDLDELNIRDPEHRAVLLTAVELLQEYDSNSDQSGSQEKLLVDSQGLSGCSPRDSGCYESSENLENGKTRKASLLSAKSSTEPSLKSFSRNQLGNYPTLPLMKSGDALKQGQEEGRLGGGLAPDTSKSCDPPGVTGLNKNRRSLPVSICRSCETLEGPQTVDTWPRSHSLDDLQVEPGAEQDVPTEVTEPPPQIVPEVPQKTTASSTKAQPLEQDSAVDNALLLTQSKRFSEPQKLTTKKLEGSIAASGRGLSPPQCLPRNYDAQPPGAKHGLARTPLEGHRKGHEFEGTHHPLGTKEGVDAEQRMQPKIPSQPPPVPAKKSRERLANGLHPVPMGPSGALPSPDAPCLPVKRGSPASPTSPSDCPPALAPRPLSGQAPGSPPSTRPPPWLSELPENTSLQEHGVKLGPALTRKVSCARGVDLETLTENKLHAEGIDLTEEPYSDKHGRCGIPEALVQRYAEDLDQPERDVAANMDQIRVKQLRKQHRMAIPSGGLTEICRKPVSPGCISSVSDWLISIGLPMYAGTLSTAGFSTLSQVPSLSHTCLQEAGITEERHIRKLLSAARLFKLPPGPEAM
UniProt Q96EU6: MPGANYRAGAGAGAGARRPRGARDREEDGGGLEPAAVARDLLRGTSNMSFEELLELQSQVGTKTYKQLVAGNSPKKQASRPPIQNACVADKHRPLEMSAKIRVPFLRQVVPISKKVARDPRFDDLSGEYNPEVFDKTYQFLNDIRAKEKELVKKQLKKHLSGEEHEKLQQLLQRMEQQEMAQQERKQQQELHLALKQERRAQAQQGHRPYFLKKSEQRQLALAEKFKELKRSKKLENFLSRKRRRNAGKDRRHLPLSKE
UniProt O00422: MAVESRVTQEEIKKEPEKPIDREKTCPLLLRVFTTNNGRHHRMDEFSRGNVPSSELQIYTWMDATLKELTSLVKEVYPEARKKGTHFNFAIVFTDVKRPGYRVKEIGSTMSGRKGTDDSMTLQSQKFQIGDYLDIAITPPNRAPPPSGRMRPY
UniProt Q96IZ7: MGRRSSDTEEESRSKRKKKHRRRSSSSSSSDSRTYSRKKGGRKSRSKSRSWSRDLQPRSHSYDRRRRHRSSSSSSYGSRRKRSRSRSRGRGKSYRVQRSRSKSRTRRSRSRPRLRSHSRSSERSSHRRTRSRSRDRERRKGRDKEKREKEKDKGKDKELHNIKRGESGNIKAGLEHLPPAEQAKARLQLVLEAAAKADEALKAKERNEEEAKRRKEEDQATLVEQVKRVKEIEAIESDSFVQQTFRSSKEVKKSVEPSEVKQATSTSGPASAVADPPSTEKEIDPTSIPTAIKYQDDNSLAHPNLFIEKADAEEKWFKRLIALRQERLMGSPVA
UniProt Q9Y6Y8: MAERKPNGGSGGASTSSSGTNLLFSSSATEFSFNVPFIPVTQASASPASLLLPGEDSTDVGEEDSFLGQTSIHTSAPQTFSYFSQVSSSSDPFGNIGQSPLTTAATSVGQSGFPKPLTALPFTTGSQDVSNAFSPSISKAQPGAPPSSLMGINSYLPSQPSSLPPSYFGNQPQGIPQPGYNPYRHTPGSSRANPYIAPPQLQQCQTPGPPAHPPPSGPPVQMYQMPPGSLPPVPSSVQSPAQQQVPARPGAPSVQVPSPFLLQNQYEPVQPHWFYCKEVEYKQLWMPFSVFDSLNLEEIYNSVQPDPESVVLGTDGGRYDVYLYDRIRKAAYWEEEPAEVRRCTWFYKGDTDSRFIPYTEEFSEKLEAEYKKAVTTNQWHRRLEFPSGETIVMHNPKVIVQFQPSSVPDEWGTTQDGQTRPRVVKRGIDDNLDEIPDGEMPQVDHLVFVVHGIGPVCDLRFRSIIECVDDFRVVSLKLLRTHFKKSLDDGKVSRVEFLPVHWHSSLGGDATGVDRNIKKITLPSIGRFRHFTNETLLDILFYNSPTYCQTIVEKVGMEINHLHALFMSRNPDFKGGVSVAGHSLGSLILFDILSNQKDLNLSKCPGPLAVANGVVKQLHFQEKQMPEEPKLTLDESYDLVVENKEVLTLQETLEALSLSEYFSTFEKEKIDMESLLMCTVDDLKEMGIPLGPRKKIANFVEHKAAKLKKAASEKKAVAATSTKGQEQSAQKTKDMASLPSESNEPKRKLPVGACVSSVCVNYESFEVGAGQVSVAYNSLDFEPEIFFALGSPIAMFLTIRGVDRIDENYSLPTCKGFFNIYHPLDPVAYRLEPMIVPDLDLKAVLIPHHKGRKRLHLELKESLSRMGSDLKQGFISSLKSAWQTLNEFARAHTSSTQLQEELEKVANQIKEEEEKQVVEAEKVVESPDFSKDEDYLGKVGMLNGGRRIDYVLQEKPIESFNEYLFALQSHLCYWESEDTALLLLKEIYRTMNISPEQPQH
UniProt Q8WU76: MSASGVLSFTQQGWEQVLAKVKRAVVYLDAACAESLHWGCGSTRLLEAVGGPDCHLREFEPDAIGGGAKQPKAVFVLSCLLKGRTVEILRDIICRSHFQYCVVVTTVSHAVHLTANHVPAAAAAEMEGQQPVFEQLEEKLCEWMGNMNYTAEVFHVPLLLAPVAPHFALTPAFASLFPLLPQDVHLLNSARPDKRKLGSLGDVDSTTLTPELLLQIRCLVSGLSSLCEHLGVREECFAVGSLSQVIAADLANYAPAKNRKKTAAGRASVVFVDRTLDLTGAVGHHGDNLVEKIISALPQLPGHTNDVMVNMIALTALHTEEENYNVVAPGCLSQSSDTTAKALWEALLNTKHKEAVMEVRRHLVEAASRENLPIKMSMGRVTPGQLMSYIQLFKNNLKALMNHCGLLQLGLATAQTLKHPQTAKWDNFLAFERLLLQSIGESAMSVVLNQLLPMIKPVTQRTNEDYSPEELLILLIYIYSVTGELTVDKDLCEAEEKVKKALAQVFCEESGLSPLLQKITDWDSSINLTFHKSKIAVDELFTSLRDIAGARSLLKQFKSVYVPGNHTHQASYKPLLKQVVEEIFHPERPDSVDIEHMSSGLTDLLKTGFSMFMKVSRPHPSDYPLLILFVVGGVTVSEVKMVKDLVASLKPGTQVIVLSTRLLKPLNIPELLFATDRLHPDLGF
UniProt Q6NW29: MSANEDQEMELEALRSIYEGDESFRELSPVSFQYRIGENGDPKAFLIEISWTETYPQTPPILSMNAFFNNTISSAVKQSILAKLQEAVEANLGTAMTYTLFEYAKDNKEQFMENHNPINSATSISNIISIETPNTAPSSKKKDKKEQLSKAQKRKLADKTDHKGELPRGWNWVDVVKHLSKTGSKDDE
UniProt Q99643: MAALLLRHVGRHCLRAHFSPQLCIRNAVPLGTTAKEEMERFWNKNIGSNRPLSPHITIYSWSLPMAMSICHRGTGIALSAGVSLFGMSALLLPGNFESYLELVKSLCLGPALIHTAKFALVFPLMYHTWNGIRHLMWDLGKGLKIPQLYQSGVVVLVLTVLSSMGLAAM
UniProt Q9Y6B6: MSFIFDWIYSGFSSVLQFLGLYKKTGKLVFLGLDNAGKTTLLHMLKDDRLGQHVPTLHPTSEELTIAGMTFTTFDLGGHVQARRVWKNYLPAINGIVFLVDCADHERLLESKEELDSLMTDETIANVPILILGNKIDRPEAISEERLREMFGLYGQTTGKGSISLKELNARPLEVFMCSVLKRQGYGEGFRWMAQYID
UniProt Q9BY50: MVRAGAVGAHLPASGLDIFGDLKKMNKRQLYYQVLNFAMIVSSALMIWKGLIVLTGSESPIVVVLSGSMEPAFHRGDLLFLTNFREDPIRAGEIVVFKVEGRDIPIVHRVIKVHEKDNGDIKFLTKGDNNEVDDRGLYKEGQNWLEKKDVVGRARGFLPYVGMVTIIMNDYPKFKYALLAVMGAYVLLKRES
UniProt Q9BY42: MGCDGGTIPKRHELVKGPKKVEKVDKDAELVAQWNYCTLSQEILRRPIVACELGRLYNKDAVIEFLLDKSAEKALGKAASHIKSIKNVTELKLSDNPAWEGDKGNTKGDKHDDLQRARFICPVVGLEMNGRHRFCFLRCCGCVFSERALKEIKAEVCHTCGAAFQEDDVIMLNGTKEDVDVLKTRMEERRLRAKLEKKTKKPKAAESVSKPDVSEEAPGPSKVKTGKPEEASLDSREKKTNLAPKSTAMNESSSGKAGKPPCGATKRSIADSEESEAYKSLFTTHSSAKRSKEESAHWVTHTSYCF
UniProt Q8WXD2: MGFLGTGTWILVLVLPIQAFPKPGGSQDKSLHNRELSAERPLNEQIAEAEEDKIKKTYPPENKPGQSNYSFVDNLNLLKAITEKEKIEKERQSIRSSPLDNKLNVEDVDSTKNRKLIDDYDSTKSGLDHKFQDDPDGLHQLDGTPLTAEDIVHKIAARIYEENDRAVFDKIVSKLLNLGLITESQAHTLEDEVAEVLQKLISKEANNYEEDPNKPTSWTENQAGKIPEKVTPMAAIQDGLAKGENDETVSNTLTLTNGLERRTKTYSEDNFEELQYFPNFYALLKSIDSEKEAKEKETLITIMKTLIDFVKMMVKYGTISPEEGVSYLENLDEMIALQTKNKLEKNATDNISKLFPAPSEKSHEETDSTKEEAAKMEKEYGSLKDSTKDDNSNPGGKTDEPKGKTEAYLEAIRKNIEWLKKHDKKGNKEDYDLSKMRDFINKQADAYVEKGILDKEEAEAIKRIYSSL
UniProt Q5JTH9: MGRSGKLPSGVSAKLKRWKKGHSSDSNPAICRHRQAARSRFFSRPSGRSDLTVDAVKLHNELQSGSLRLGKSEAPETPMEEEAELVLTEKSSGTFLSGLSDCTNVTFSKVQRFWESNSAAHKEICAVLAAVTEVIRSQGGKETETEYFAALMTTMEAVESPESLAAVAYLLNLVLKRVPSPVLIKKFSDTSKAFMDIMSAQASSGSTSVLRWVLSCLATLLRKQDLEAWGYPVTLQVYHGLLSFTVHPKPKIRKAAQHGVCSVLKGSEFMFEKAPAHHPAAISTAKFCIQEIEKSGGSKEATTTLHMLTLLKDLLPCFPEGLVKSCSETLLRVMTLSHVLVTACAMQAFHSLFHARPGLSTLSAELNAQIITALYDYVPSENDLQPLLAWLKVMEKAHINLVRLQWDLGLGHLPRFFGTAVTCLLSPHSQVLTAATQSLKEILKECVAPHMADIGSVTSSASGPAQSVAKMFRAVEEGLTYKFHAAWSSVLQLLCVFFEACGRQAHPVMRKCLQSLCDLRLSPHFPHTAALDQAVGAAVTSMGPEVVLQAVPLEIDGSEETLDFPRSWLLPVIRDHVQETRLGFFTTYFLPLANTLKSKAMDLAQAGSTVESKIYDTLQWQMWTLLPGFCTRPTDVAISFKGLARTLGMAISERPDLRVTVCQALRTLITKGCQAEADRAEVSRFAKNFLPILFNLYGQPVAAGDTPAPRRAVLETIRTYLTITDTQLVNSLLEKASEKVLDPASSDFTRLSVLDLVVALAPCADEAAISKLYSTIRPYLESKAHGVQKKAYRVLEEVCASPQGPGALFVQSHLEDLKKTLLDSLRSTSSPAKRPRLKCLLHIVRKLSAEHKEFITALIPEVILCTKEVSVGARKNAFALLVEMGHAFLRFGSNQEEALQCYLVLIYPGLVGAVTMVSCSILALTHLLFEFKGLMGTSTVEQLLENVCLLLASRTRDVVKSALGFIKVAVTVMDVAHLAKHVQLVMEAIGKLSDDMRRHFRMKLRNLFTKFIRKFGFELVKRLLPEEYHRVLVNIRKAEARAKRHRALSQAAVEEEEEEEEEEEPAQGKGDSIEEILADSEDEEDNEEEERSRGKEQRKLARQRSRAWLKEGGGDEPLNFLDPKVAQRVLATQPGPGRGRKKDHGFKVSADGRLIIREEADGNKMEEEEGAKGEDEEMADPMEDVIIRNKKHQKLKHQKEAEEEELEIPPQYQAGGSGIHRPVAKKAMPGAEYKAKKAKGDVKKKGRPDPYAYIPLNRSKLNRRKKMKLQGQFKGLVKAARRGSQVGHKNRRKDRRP

These targets were tested with Nc1ccccc1NC(=O)c1ccc(CNC(=O)OCc2cccnc2)cc1 [entinostat] (assay: log2 fold change, soluble protein after heating vs DMSO (PISA); higher = thermal stabilisation; K562 cells, 10 uM, 30 min; active = over 0.2 and 3.5 SD of the protein, either way, in both replicates (recomputed)).
Procedure, shortened: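 K562 cells (2×10^6 cells/mL) were treated with 10 μM compound for 30 min, and aliquots were heated for 3 min over 48°C-58°C. Pooled aliquots were extracted in PBS with 0.5% NP-40 at 4°C, and the supernatant after 21,000xg for 90 min was measured by TMTpro 16plex LC-MS/MS with channel sums equalised. Reported thermal stability, relative to control samples and from duplicates, is a log2 fold change.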

Target | log2 fold change
S100A11 (UniProt P31949) | inactive: 0.082
SASH1 (UniProt O94885) | inactive: 0.035
RRP36 (UniProt Q96EU6) | inactive: -0.073
SEC11A isoform 3 (UniProt P67812) | inactive: -0.004
SCAF8 isoform 2 (UniProt Q9UPN6) | inactive: 0.053
RSBN1 (UniProt Q5VWQ0) | inactive: -0.036
SAP18 isoform 2 (UniProt O00422) | inactive: -0.156
SCARB2 (UniProt Q14108) | inactive: 0.033
RSRC1 (UniProt Q96IZ7) | inactive: -0.04
SEC23IP (UniProt Q9Y6Y8) | inactive: 0.049
SCYL2 (UniProt Q6P3W7) | inactive: 0.009
RWDD1 (UniProt Q9H446) | inactive: 0.011
RTN4IP1 (UniProt Q8WWV3) | inactive: 0.009
SDHAF2 (UniProt Q9NX18) | inactive: -0.04
SCFD2 (UniProt Q8WU76) | inactive: 0.027
S100PBP (UniProt Q96BU1) | inactive: 0

Target | log2 fold change
RWDD4 (UniProt Q6NW29) | inactive: 0.011
SAFB isoform 3 (UniProt Q15424) | inactive: -0.033
RTCB (UniProt Q9Y3I0) | inactive: -0.049
SDHC (UniProt Q99643) | inactive: -0.178
SDHAF3 (UniProt Q9NRP4) | inactive: 0.027
SAR1B (UniProt Q9Y6B6) | inactive: 0.011
SBDS (UniProt Q9Y3A5) | inactive: 0.042
SEC11C (UniProt Q9BY50) | inactive: 0.089
S100P (UniProt P25815) | inactive: 0.125
SCIN (UniProt Q9Y6U3) | inactive: 0.022
RTF2 (UniProt Q9BY42) | inactive: -0.023
SCG3 (UniProt Q8WXD2) | inactive: 0.009
SCO2 (UniProt O43819) | inactive: -0.266
SCAMP1 (UniProt O15126) | inactive: -0.037
SCAMP3 (UniProt O14828) | inactive: -0.022
RRP12 (UniProt Q5JTH9) | inactive: 0.081

Two entries from above, with tabs:
Target	log2 fold change
SCIN (UniProt Q9Y6U3)	inactive: 0.022
SCAMP1 (UniProt O15126)	inactive: -0.037
